# These are yes or no findings as the source states them, for the method shown. In cells and extracts the contact can be indirect. Some results given as binding are weak or reduced against the parent protein; the word gives no strength.
# Protein sequences, listed by entry. Tags and fused reporters are not part of them.
# UniProt Q71RC2: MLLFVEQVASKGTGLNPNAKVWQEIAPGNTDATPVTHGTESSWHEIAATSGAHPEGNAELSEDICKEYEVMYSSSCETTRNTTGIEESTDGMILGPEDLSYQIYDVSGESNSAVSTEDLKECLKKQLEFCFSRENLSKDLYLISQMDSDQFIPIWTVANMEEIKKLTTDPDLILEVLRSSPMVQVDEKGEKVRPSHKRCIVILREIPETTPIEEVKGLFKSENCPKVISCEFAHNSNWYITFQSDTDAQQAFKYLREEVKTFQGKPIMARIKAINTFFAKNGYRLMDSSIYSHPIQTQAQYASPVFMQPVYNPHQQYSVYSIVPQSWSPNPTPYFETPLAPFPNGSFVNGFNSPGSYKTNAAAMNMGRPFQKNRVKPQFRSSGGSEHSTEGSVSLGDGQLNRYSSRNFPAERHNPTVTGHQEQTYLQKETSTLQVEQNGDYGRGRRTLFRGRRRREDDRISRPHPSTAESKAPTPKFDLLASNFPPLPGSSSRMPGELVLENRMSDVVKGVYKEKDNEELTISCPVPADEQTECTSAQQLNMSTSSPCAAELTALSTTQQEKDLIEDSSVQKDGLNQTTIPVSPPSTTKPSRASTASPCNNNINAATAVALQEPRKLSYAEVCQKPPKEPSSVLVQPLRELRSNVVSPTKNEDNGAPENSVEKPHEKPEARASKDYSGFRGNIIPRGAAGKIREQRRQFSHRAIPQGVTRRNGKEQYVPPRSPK
# Biological target: T1, A-Kinase Anchoring Protein-1 (AKAP1) (human (endogenous in HCT116)) (UniProt Q92667)
# T1 sequence: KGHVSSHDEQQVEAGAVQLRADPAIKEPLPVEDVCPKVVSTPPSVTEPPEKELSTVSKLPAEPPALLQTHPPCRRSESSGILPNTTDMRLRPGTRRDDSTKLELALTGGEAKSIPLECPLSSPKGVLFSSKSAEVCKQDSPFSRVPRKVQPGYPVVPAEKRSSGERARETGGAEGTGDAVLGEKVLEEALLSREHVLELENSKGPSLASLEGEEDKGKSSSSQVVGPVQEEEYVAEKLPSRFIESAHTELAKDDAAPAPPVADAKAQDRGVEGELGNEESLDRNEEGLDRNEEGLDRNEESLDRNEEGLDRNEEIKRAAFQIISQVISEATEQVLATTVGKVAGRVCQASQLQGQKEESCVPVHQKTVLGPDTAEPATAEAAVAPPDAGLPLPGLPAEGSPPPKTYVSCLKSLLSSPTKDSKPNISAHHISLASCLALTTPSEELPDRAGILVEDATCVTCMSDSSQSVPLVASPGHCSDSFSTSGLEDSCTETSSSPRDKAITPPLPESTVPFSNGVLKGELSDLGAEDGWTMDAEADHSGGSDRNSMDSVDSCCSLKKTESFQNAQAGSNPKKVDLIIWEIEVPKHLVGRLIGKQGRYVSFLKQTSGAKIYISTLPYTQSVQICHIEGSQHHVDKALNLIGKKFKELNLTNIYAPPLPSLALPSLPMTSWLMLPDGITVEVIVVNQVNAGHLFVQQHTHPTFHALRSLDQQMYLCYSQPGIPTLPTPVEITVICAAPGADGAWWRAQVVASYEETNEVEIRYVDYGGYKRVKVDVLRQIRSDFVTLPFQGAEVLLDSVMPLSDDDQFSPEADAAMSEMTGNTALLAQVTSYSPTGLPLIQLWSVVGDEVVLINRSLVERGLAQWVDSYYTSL
# Assay: co-IP; HCT116 lysate in RIPA buffer; 1 mg of proteins on magnetic beads coupled or not with 5 µg of AKAP1 antibody; 16 h at 4 °C; AKAP1 and LARP4 revealed by Western blot
substance,measurement,value
La Ribonucleoprotein 4 (LARP4) (from UniProt Q71RC2 1-724),binding,binds

# Source: paper PMC10253763
